Data as given in patent publication US20140179593A1 (published 2014).
Results are given in words; binding and its absence hold for the method and conditions named. Some binding calls cover weakened binding; strength is not graded here.

Amino acid sequences for entries named in this document (tags omitted). A change or cut given only in a name is not applied to a line headed by its entry.
UniProt Q13564: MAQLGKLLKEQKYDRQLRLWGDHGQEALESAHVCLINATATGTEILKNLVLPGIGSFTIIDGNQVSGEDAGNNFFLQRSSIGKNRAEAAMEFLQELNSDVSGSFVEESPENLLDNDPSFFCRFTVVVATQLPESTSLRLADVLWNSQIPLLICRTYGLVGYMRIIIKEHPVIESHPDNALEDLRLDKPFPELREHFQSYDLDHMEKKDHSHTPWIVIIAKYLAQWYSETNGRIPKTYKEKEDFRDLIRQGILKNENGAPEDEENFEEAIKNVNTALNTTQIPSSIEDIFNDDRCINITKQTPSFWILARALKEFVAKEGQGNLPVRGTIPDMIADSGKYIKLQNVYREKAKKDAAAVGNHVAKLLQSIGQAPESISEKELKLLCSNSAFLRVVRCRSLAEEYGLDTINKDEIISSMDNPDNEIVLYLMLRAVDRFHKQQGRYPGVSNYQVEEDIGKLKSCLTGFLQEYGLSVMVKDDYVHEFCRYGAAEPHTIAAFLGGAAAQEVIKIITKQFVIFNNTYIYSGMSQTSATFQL

Target: hE1 for Nedd8 (APPBP1-UBA3, NAE1-UBA3) (Homo sapiens) (UniProt Q13564)
Assay: ITC, peptide titrated into E1

binding: binds
Binder: MIKLFSLKQQKKEEESAGGTKGSSKK (N-terminal acetyl on Met1; C-terminal amide) [Acetyl-hUbc12^1-26]
